{
  "sequences": {"note": "Protein sequences, listed by entry. Tags and fused reporters are not part of them. Lines headed by an entry give the natural chain unless they say otherwise; changes in a name come on top.", "UniProt P18054": "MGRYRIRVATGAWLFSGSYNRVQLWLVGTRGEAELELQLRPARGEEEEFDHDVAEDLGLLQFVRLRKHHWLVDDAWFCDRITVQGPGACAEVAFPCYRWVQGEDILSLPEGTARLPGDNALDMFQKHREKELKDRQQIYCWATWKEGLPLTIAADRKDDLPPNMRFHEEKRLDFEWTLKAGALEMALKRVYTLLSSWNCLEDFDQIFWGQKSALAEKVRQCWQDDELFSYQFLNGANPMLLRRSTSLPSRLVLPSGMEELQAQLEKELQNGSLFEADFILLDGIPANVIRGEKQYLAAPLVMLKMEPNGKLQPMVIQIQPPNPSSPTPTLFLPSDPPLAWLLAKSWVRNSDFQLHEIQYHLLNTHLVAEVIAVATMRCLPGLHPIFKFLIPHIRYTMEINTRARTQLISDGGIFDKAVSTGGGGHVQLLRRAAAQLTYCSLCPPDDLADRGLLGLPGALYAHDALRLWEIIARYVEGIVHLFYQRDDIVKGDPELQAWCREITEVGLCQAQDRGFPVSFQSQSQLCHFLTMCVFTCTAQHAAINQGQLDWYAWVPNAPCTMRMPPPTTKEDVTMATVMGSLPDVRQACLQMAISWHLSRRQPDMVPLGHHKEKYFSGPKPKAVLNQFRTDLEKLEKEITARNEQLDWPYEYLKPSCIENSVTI"},
  "source": "PubChem BioAssay AID1671190",
  "about": "(National Center for Advancing Translational Sciences (NCATS), 2021)",
  "note": "Out of some 580,000 compounds screened, about 6,100 (1.1%) were called active. The inconclusive results got no clear call from the source; some entries with a clear call stand among them for comparison. The call rests on the fitted dose curve; in most records, active means well fitted inhibition curve with a large enough effect; inconclusive means small, poorly fitted or top-dose-only effect, or another doubt; inactive means no such curve, though single readings can be large or run the other way. Potencies of inconclusive entries are doubtful fits and often do not repeat. On the % scale 0 is the no-effect control and ±100 the full control effect; potency means the concentration at half of the fitted maximal effect.",
  "data": [
    {"target": "Polyunsaturated fatty acid lipoxygenase ALOX12 (Homo sapiens) (UniProt P18054)", "assay": "Primary qHTS assay for inhibitors of human arachidonate 12S-lipoxygenase (ALOX12): Round 2", "settings": "purified 12hLO, xylenol orange hydroperoxide absorbance; activity change, negative = inhibition: at 108 µM (top of the series) unless noted", "how_it_was_run": "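Purified human 12hLO at 150 nM in 25 mM Hepes, 0.01% Triton X-100, pH 7.0, preincubated 15 min at room temperature with compound. Reaction started with 40 uM arachidonic acid, 30 min at room temperature. Hydroperoxide measured by Fe-xylenol orange, 573/405 nm absorbance ratio.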", "values": [
      {"molecule": "O=C(Nc1ccccc1O)c1cccc(NC(=O)c2ccco2)c1", "activity change, negative = inhibition": "inactive: -5.55%"},
      {"molecule": "Cn1c(=O)c(C(=O)c2ccccc2)c(O)c2ccccc21", "Potency": "inconclusive: 100 µM [inhibitor, single point]"},
      {"molecule": "O=S(=O)(c1cccs1)N1CCOc2ccc(COCc3ccc(Cl)cc3)cc2C1", "activity change, negative = inhibition": "inactive: -4.72%"},
      {"molecule": "COc1ccccc1-c1nc(NCCc2cnc[nH]2)c2ccccc2n1", "activity change, negative = inhibition": "inactive: -2.45%"},
      {"molecule": "Cc1ccc(-n2c(SCC(=O)N3CCCC3=O)nc3ccccc3c2=O)nc1", "Potency": "inconclusive: 50.1 µM [inhibitor, single point]"},
      {"molecule": "CCCc1nc(C#N)c(N2CCN(c3cccc(Cl)c3)CC2)o1", "Potency": "inconclusive: 100 µM [inhibitor, single point]"},
      {"molecule": "CCc1ccc(N2CC(C(=O)Nc3ccc(S(=O)(=O)N4CCCCC4)cc3)CC2=O)cc1", "note": "(stereo unspecified)", "Potency": "inconclusive: 50.1 µM [inhibitor, partial curve, poor fit]"},
      {"molecule": "COc1cccc(CCC(=O)N2CCCC(c3[nH]ccc3C(N)=O)C2)c1", "note": "(stereo unspecified)", "activity change, negative = inhibition": "inactive: 13.1%"},
      {"molecule": "CCOC(=O)c1cccc(NC(=O)CSc2nnc(CNc3ccc(C)cc3)n2CC)c1", "activity change, negative = inhibition": "inactive: 4.5%"},
      {"molecule": "CC(C)CC1C(=O)N(Cc2cn(Cc3ccco3)nn2)CCS(=O)(=O)N1Cc1ccc(-c2ccccc2)cc1", "note": "(stereo unspecified)", "Potency": "inconclusive: 56.2 µM [inhibitor, partial curve, poor fit]"},
      {"molecule": "CNc1snc(C)c1C(=O)OC(C)C(=O)NC1CCCC1", "note": "(stereo unspecified)", "Potency": "inconclusive: 63.1 µM [inhibitor, partial curve, poor fit]"},
      {"molecule": "Cc1cccc(C)c1NC(=O)C(c1ccncc1)N1CCN(CCN(C)C)CC1", "note": "(stereo unspecified)", "Potency": "inconclusive: 89.1 µM [inhibitor, single point]"},
      {"molecule": "CN(C)c1ccc(C(CNC(=O)/C=C/c2ccco2)c2c[nH]c3ccccc23)cc1", "note": "(stereo unspecified)", "Potency": "inconclusive: 79.4 µM [inhibitor, partial curve, poor fit]"},
      {"molecule": "COc1ccc(-c2noc([C@@H]3C[C@@H](O)CN3C3CCN(C)CC3)n2)cc1", "Potency": "inconclusive: 5.62 µM [inhibitor, full curve]"},
      {"molecule": "O=Cc1cn(-c2ccccc2)nc1-c1cc2cc(O)ccc2oc1=O", "activity change, negative = inhibition": "inactive: -11.6%"},
      {"molecule": "O=S(=O)(NCCO)c1cc(Cl)ccc1Cl", "Potency": "inconclusive: 141 µM [inhibitor, single point]"},
      {"molecule": "CNC(C)c1ccco1", "note": "(stereo unspecified)", "Potency": "inconclusive: 1.07 µM [inhibitor, partial curve]"},
      {"molecule": "O=C(O)c1sc(C(=O)O)c(-c2ccccc2)c1-c1ccccc1", "Potency": "inconclusive: 89.1 µM [inhibitor, single point]"},
      {"molecule": "CCCCNC(=S)N(c1ccccc1)C(C)C", "activity change, negative = inhibition": "inactive: 15.9%"},
      {"molecule": "O=C(COc1ccc(Cl)cc1Cl)NCC1(N2CCOCC2)CCCCC1", "activity change, negative = inhibition": "inactive: -6.5%"},
      {"molecule": "CC(C)c1ccc(/C=C2\\SC(=S)N(CCC(=O)NCCCn3ccnc3)C2=O)cc1", "activity change, negative = inhibition": "inactive: -21.5%"},
      {"molecule": "O=C(NCc1ccccc1)c1ccc2nc(-c3ccccc3)c(-c3ccccc3)nc2c1", "activity change, negative = inhibition": "inactive: -26.8%"},
      {"molecule": "O=c1c2c3nc4ccccc4nc3n(-c3ccc4c(c3)OCCO4)c2ncn1C1CCCC1", "activity change, negative = inhibition": "inactive: 29.3%"},
      {"molecule": "COc1ccc(C(=O)NNC(=O)CSc2nnc(-c3cccnc3)n2C)cc1", "Potency": "inconclusive: 0.251 µM [inhibitor, full curve, poor fit]"},
      {"molecule": "O=C(Nc1ccc(N2CCCC2)cc1)c1cccc(-c2cc3ccccc3oc2=O)c1", "Potency": "active: 11.2 µM"},
      {"molecule": "CCc1noc(-c2cn(C3CCN(C(=O)c4ccc(C(C)(C)C)cc4)C3)nn2)n1", "note": "(stereo unspecified)", "Potency": "inconclusive: 50.1 µM [inhibitor, partial curve]"},
      {"molecule": "Cc1csc(NC(=O)CSc2nc3sc(C)c(C)c3c(=O)[nH]2)n1", "Potency": "inconclusive: 11.2 µM [inhibitor, partial curve, poor fit]"},
      {"molecule": "CCOC(=O)Cc1csc(NC(=O)c2sc3nc4ccc(C)cc4cc3c2N)n1", "Potency": "inconclusive: 56.2 µM [inhibitor, partial curve, poor fit]"},
      {"molecule": "CC(=O)Nc1nc2n(n1)C(c1ccc(F)cc1)C=C(c1ccc(Cl)cc1)N2", "note": "(stereo unspecified)", "activity change, negative = inhibition": "inactive: 4.57%"},
      {"molecule": "CC(C)c1ccc(/C=C(/C#N)c2nc3ccccc3o2)cc1", "activity change, negative = inhibition": "inactive: 26.5%"},
      {"molecule": "O=c1cc(-c2ccc(O)cc2)oc2cc(O)cc(O)c12", "Potency": "inconclusive: 39.8 µM [inhibitor, partial curve, poor fit]"},
      {"molecule": "O=C(CN1CCCC1)NC(c1ccccc1)c1ccccc1", "Potency": "inconclusive: 0.447 µM [inhibitor, full curve, poor fit]"},
      {"molecule": "COc1ccc(CCNC(=O)CCn2c(=O)c3ccccc3n(Cc3ccccc3F)c2=O)cc1OC", "Potency": "inconclusive: 63.1 µM [inhibitor, partial curve, poor fit]"},
      {"molecule": "O=C1CCNCCCC(CO)CCN1", "note": "(stereo unspecified)", "activity change, negative = inhibition": "inactive: 12.2%"},
      {"molecule": "O=C(NCCN1CCOCC1)c1c(O)nc2sccn2c1=O", "Potency": "inconclusive: 28.2 µM [inhibitor, partial curve, poor fit]"},
      {"molecule": "Cc1ccc(-n2c(C)cc(-c3csc(N)n3)c2C)cc1", "Potency": "inconclusive: 35.5 µM [inhibitor, partial curve]"},
      {"molecule": "C=CCNCCOCCOc1ccc(C)cc1Br", "Potency": "inconclusive: 6.31 µM [inhibitor, full curve, poor fit]"},
      {"molecule": "COC(=O)C1=C(C)NC(=O)/C1=C\\c1cc(C)n(-c2ccccc2F)c1C", "Potency": "inconclusive: 44.7 µM [inhibitor, partial curve, poor fit]"},
      {"molecule": "Cc1cccc2cc(C#N)c(NCCNC(=O)COc3ccccc3)nc12", "activity change, negative = inhibition": "inactive: -4.17%"},
      {"molecule": "Cc1cccc(OCC(=O)Nc2cccc(OCc3cc(=O)n4cccc(C)c4n3)c2)c1", "activity change, negative = inhibition": "inactive: -1.48%"},
      {"molecule": "O=C(Cc1ccc(Cl)cc1)NCC1COc2ncncc2C(=O)N1Cc1ccccc1", "note": "(stereo unspecified)", "Potency": "inconclusive: 11.2 µM [inhibitor, partial curve, poor fit]"},
      {"molecule": "CCOc1cccc2cc(C(=O)N3CCc4ccccc4C3)c(=O)oc12", "Potency": "inconclusive: 44.7 µM [inhibitor, partial curve, poor fit]"},
      {"molecule": "COc1ccc(CNC(=S)Nc2ccccc2Cl)cc1", "Potency": "inconclusive: 35.5 µM [inhibitor, partial curve, poor fit]"},
      {"molecule": "CC1=NN(C(=O)c2ccc(Cn3nc(C)cc3C)o2)C(O)(C(F)(F)F)C1", "note": "(stereo unspecified)", "activity change, negative = inhibition": "inactive: 11%"},
      {"molecule": "COC(=O)Cc1c(C)nc2nc(NCc3cc(F)cc(F)c3)[nH]n2c1=O", "activity change, negative = inhibition": "inactive: -0.36%"},
      {"molecule": "CCC1Nc2ncnc(N3CCN(c4ccccc4)CC3)c2N(Cc2ccc(Cl)cc2)C1=O", "note": "(stereo unspecified)", "Potency": "inconclusive: 50.1 µM [inhibitor, partial curve, poor fit]"}
    ]}
  ]
}
